Counter-ions that a name gives are not always drawn. ± gives the standard deviation of the averaged measurements. Some of the results follow. Single values are uncertain here, since repeats match poorly.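 Triple-negative MDA-MB-231 breast cancer cells and their brain-metastatic MDA-MB-231BRM derivative each stably expressed empty vector, full-length GLI1 or truncated tGLI1. CellTiter-Blue measured viability at 48 h relative to 1% DMSO vehicle. Compounds reducing viability 20% more in tGLI1 cells than in vector and GLI1 cells counted as tGLI1-selective.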
System: MDA-MB-231 Vector
Assay: cell viability relative to vehicle (DMSO) control (fraction); higher = more viable cells (less growth inhibition)
Conditions: 5 µM; treatment time 48 h

| Compound | cell viability |
| --- | --- |
| C[C@H]1[C@H](C)CC[C@]2(C(=O)O)CC[C@]3(C)C(=CC[C@@H]4[C@@]5(C)C[C@@H](O)[C@H](O)[C@@](C)(CO)[C@@H]5CC[C@]43C)[C@H]12 [Asiatic Acid] | 1.43 |
| O=C1NC(=O)C(c2ccccc2[N+](=O)[O-])=C1Nc1ccc(O)c(Cl)c1 | 0.745 |
| Cc1c(Cn2c(C)nc3c(C(=O)O)cc(N4CCOCC4)cc32)cccc1C(F)(F)F | 0.47 |
| Cc1ccc(NC(=O)c2ccc(CN3CCN(C)CC3)cc2)cc1Nc1nccc(-c2cccnc2)n1 [Imatinib (STI571)] | 1.69 |
| CCC(=O)NCC[C@@H]1CCc2ccc3c(c21)CCO3 [Ramelteon (TAK-375)] | 1 |
| NC(=O)Nc1cc(-c2cccc(F)c2)sc1C(=O)N[C@H]1CCCNC1 | 0.0775 |
| COc1cc2ncnc(Oc3ccc(CC(=O)Nc4cnn(C(C)C)c4)cc3)c2cc1OC | 1.29 |
| CC(C)(C)NS(=O)(=O)c1cncc(-c2cc(F)c3nc(N)nn3c2)c1 | 1.05 |
| O=C(Nc1cc(C(F)(F)F)cc(C(F)(F)F)c1)c1cc(Cl)ccc1O | -0.029 |
| CN1CCC(COc2cnc(-c3cccc(Cn4nc(-c5cccc(C#N)c5)ccc4=O)c3)nc2)CC1 | 1.71 |
| CC(C)CC(=O)Nc1n[nH]c2c1CN(C(=O)C1CCN(C)CC1)C2(C)C | 0.245 |
| COc1cc2ncc(-c3ccccc3)nc2cc1OC [Tyrphostin AG 1296] | 0.764 |
| C1=N/C2=N/c3ccc(OCCN4CCCC4)c(c3)COC/C=C/COCc3cccc(c3)C(=C1)N2 [Pacritinib (SB1518)] | -0.129 |
| O=C(NCCO)c1cccc(-c2cc(Nc3ccc(OC(F)(F)F)cc3)ncn2)c1 | 1.43 |
| N#CC(=C(/N)Sc1ccccc1N)/C(C#N)=C(\N)Sc1ccccc1N | 0.795 |
| CN(C)Cc1cccc(N/C(=C2\C(=O)Nc3cc(C(N)=O)ccc32)c2ccccc2)c1 | 1.18 |
| C[C@@H](CN1CC(=O)NC(=O)C1)N1CC(=O)NC(=O)C1 [Dexrazoxane Hydrochloride] | 1.18 |
| COc1ccc(-c2ccc3ncc4c(c3c2)n(-c2ccc(N3CCNCC3)c(C(F)(F)F)c2)c(=O)n4C)cn1 | -0.19 |
| CC(C)(C)c1cnc(CSc2cnc(NC(=O)C3CCNCC3)s2)o1 | 0.193 |
| Cc1c(F)cc(C(=O)NC2CC2)cc1-c1ccc(C(=O)NCC(C)(C)C)cn1 | 1.36 |

3 compounds already listed, sorted by formula weight, largest number first:

| Compound | cell viability |
| --- | --- |
| CN(C)Cc1cccc(N/C(=C2\C(=O)Nc3cc(C(N)=O)ccc32)c2ccccc2)c1 | 1.18 |
| CC(C)(C)NS(=O)(=O)c1cncc(-c2cc(F)c3nc(N)nn3c2)c1 | 1.05 |
| C[C@@H](CN1CC(=O)NC(=O)C1)N1CC(=O)NC(=O)C1 [Dexrazoxane Hydrochloride] | 1.18 |

Carrying on.

| Compound | cell viability |
| --- | --- |
| CCCC1O[C@@H]2C[C@H]3[C@@H]4CCC5=CC(=O)C=C[C@]5(C)[C@H]4[C@@H](O)C[C@]3(C)[C@]2(C(=O)CO)O1 (some centres undefined) [Budesonide] | 0.959 |
| C[C@@H](Oc1cc(-c2cnn(C3CCNCC3)c2)cnc1N)c1c(Cl)ccc(F)c1Cl | 0.452 ± 0.14 |
| O=C1NC(=O)/C(=C/c2ccc3nccc(-c4ccncc4)c3c2)S1 | 0.372 |
| Cc1ccc2nc(NCCN)c3ncc(C)n3c2c1 | 0.128 |
| CC(=O)[C@]1(O)Cc2c(O)c3c(c(O)c2[C@@H](O[C@H]2C[C@H](N)[C@H](O)[C@H](C)O2)C1)C(=O)c1ccccc1C3=O [Idarubicin HCl] | -0.471 |
| NC1(c2ccc(-c3nc4ccn5c(=O)[nH]nc5c4cc3-c3ccccc3)cc2)CCC1 | 0.381 |
| O=C1NC(=O)/C(=C/c2ccc(-c3ccc(F)cc3O)o2)S1 | 0.591 |
| CN(C)CCOc1ccc(-c2nc(-c3ccncc3)c(-c3ccc4c(c3)CC/C4=N\O)[nH]2)cc1 | -0.157 |
| O=C1NC(=O)/C(=C/c2cccc(C(F)(F)F)c2)S1 | 1.19 |
| C=CC(=O)Nc1ccc2ncnc(Nc3cccc(Br)c3)c2c1 | 0.704 |
| COc1cc(F)c(F)c(Nc2ccc(I)cc2F)c1NS(=O)(=O)C1(C[C@H](O)CO)CC1 [Refametinib (RDEA119, Bay 86-9766)] | 0.434 |
| Cc1cc(CN2CCN(c3c(Br)cnc4nc(-c5ccc(N6CCN(C)CC6)cc5)[nH]c34)CC2)no1 | 0.00941 |
| Cc1cc(F)c(Nc2ncnc3cc(OCc4ccccc4)ccc23)cc1O | 0.825 |
| CN1CCC(CNc2ccc3ncc(-c4cccc(OC(F)(F)F)c4)n3n2)CC1 [SGI-1776 free base] | 0.194 |
| COc1cc(OC)c(/C=C/S(=O)(=O)Cc2ccc(OC)c(NCC(=O)O)c2)c(OC)c1 | 0.115 |
| COc1ncc(-c2ccc3nccc(-c4ccnnc4)c3c2)cc1NS(=O)(=O)c1ccc(F)cc1F | 0.448 |
| S=C(NCc1ccc2c(c1)OCO2)N1CCN(c2ncnc3c2oc2ccccc23)CC1 [Amuvatinib (MP-470)] | 0.921 |
| OCCn1cc(-c2cnc3nnn(Cc4ccc5ncccc5c4)c3n2)cn1 | 0.788 |
| Cc1c(NC(=O)c2ccc(C(C)(C)C)cc2)cccc1-c1cn(C)c(=O)c(Nc2ccc(C(=O)N3CCOCC3)cc2)n1 | 1.34 |
